# Data from PubChem BioAssay AID256 (DTP/NCI, 2004).
# The list shows only some results of the screen, not a fair sample: it gathers tests that were run many times, whatever their T/C, doses with no T/C, and many T/C values between a quarter and a half above the control. Other doses and runs of a compound stand elsewhere. T/C is the treated group as % of the vehicle group. Some doses have a count of surviving animals in place of a T/C: the source holds a T/C of zero for them, seemingly a mark for toxic or unscored doses. Some doses without a T/C left all or most animals alive at the check, yet need not have been tolerated: the source hardly ever lists a survival T/C far under the control, and the zero likely stands for such cases as well. Counts of survivors are from the toxicity check (mostly the fifth day) where no day follows; animals may have died later. Schedules are NCI's codes, read here as Q, the interval in days (D) or hours (H), X, the number of doses. Some entries hold several experiments; the results are listed from low to high. For survival time, the PubChem record calls one and a half times the control and up active, and a quarter to a half above the control has no call in these data; cut-offs in other NCI protocols can differ.
# Tested on: CD2F1 mice, L1210 leukemia ip, survival T/C
# Experiment: NCI In Vivo Anticancer Drug Screen. Data for tumor model L1210 Leukemia (intraperitoneal) in CD2F1 (CDF1) mice
# Details: higher T/C = longer survival
# Method in brief: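 Antitumor effect is scored in animals hosting a serially transplanted tumor. Values compare compound-dosed animals against vehicle-only controls as a simple quotient.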
# [1] = T/C endpoint: mean survival time, dose: 100.0 mg/kg/injection, schedule: Q04DX003 (ip), vehicle: saline with Tween-80
# [2] = T/C endpoint: mean survival time, dose: 400.0 mg/kg/injection, schedule: Q04DX002 (ip), vehicle: saline with Tween-80
# [3] = T/C endpoint: mean survival time, dose: 400.0 mg/kg/injection, schedule: Q04DX003 (ip), vehicle: saline with Tween-80
# [4] = T/C endpoint: mean survival time, dose: 400.0 mg/kg/injection, schedule: Q01DX001 (ip), vehicle: saline with Tween-80
# [5] = T/C endpoint: mean survival time, dose: 400.0 mg/kg/injection, schedule: Q01DX001 (ip), vehicle: saline
# [6] = T/C endpoint: mean survival time, dose: 200.0 mg/kg/injection, schedule: Q01DX009 (ip), vehicle: saline with Tween-80
# [7] = T/C endpoint: mean survival time, dose: 200.0 mg/kg/injection, schedule: Q04DX003 (ip), vehicle: saline with Tween-80
# [8] = T/C endpoint: mean survival time, dose: 400.0 mg/kg/injection, schedule: Q01DX009 (ip), vehicle: saline with Tween-80
compound,measurement,setting,value
NC1CCCCC1N.O=S(=O)([O-])c1cccc(S(=O)(=O)[O-])c1.[Pt+4],T/C,"T/C endpoint: median survival time, dose: 1.56 mg/kg/injection, schedule: Q04DX003 (ip), vehicle: saline with Tween-80",125 % of control
same,T/C,"T/C endpoint: median survival time, dose: 6.25 mg/kg/injection, schedule: Q04DX003 (ip), vehicle: saline with Tween-80",148 % of control
same,survivor count,"T/C endpoint: median survival time, dose: 100.0 mg/kg/injection, schedule: Q04DX003 (ip), vehicle: saline with Tween-80",5 of 6 and 6 of 6
same,survivor count,"T/C endpoint: median survival time, dose: 200.0 mg/kg/injection, schedule: Q04DX003 (ip), vehicle: saline with Tween-80",4 of 6
O=C(OC(CC[P+](c1ccccc1)(c1ccccc1)c1ccccc1)(C(=O)c1ccccc1)c1ccccc1)c1ccccc1 (configuration not stated),survivor count,"T/C endpoint: mean survival time, dose: 25.0 mg/kg/injection, schedule: Q04DX003 (ip), vehicle: saline with Tween-80",2 of 6
same,survivor count,"T/C endpoint: mean survival time, dose: 50.0 mg/kg/injection, schedule: Q04DX003 (ip), vehicle: saline with Tween-80",0 of 6
same,survivor count,[1],0 of 6
COc1ccc2c(c1)-c1nn(CCCN(C)C)c3ccc([N+](=O)[O-])c(c13)N2,T/C,"T/C endpoint: median survival time, dose: 3.12 mg/kg/injection, schedule: Q01DX005 (ip), vehicle: water",132 % of control
same,T/C,"T/C endpoint: median survival time, dose: 4.5 mg/kg/injection, schedule: Q01DX005 (ip), vehicle: water",143 % of control
same,T/C,"T/C endpoint: median survival time, dose: 6.25 mg/kg/injection, schedule: Q01DX005 (ip), vehicle: water",144 % of control
same,T/C,"T/C endpoint: median survival time, dose: 12.5 mg/kg/injection, schedule: Q01DX005 (ip), vehicle: water",144 % of control
same,T/C,"T/C endpoint: median survival time, dose: 25.0 mg/kg/injection, schedule: Q01DX005 (ip), vehicle: water",144 % of control
same,T/C,"T/C endpoint: median survival time, dose: 25.0 mg/kg/injection, schedule: Q01DX009 (ip), vehicle: water",136 % of control
CC[NH-].CC[NH-].[Cl][Pt+2][Cl],survivor count,"T/C endpoint: mean survival time, dose: 20.0 mg/kg/injection, schedule: Q04DX003 (ip), vehicle: water",10 of 10
same,survivor count,"T/C endpoint: mean survival time, dose: 40.0 mg/kg/injection, schedule: Q04DX003 (ip), vehicle: water",10 of 10
CC(C)C(C(N)=O)C(N)=O,T/C,[2],128 % of control
Cc1ncoc1C(=O)O,survivor count,[3],2 of 6
O=C1c2ccccc2C(=O)C1c1cc2ccccc2cn1,survivor count,[4],6 of 6
CC(=O)Oc1ccccc1C(CC(C)C)OC(C)=O (configuration not stated),survivor count,[5],3 of 6
CC1/C(=N/O)C(=O)c2ccccc21 (configuration not stated),survivor count,[6],3 of 6
same,survivor count,[4],3 of 6
COc1ccc2[nH]cc(CN(C)C)c2c1,T/C,"T/C endpoint: mean survival time, dose: 50.0 mg/kg/injection, schedule: Q01DX009 (ip), vehicle: saline with Tween-80",128 % of control
same,survivor count,"T/C endpoint: mean survival time, dose: 75.0 mg/kg/injection, schedule: Q01DX009 (ip), vehicle: saline with Tween-80",0 of 6
same,survivor count,[7],1 of 6
same,survivor count,[3],0 of 6
CCSC(=O)CC,survivor count,[8],3 of 6
CCN(CC)c1ccc(N=Cc2cc(=O)n(C)c3ccccc23)cc1,survivor count,"T/C endpoint: mean survival time, dose: 200.0 mg/kg/injection, schedule: Q01DX001 (ip), vehicle: saline with Tween-80",6 of 6
CN(CCCCN(C)CCOS(C)(=O)=O)CCOS(C)(=O)=O,T/C,"T/C endpoint: mean survival time, dose: 1.7 mg/kg/injection, schedule: Q01DX009 (ip), vehicle: saline",135 % of control
same,T/C,"T/C endpoint: mean survival time, dose: 2.6 mg/kg/injection, schedule: Q01DX009 (ip), vehicle: saline",125 % of control
same,T/C,"T/C endpoint: mean survival time, dose: 5.5 mg/kg/injection, schedule: Q01DX001 (ip), vehicle: saline",140 % of control
same,survivor count,"T/C endpoint: mean survival time, dose: 6.0 mg/kg/injection, schedule: Q01DX009 (ip), vehicle: saline",6 of 6
same,survivor count,"T/C endpoint: mean survival time, dose: 50.0 mg/kg/injection, schedule: Q01DX001 (ip), vehicle: saline",4 of 6
COC1OC(OC)[CH]([Hg][Cl])C1OC (configuration not stated),survivor count,[1],1 of 6
same,survivor count,[7],0 of 6
same,survivor count,[3],0 of 6
CN1CCCCCC1,survivor count,[3],0 of 6
O=C1/C(=C\c2ccc(Cl)cc2)SC(=S)N1/N=C/c1ccc(Cl)cc1,survivor count,"T/C endpoint: mean survival time, dose: 100.0 mg/kg/injection, schedule: Q01DX001 (ip), vehicle: saline with Tween-80",3 of 3
same,survivor count,[4],3 of 3
CCCCCCCCCCCCCCCC(=O)NCCN(CC)CC,survivor count,"T/C endpoint: mean survival time, dose: 75.0 mg/kg/injection, schedule: Q01DX001 (ip), vehicle: saline",6 of 6
same,survivor count,"T/C endpoint: mean survival time, dose: 100.0 mg/kg/injection, schedule: Q01DX009 (ip), vehicle: saline with Tween-80",6 of 6
same,survivor count,"T/C endpoint: mean survival time, dose: 150.0 mg/kg/injection, schedule: Q04DX003 (ip), vehicle: saline with Tween-80",2 of 6
same,survivor count,[6],0 of 6
same,survivor count,"T/C endpoint: mean survival time, dose: 300.0 mg/kg/injection, schedule: Q01DX001 (ip), vehicle: saline",2 of 6
same,survivor count,"T/C endpoint: mean survival time, dose: 300.0 mg/kg/injection, schedule: Q04DX003 (ip), vehicle: saline with Tween-80",1 of 6
CC(=O)NC(CSCc1c2ccccc2c(C)c2c1ccc1ccccc12)C(=O)O (configuration not stated),survivor count,[3],6 of 6
Nc1ncc(C(=O)c2ccccc2)cc1[N+](=O)[O-],survivor count,[3],5 of 6
CN(C)Cc1cc(CN(C)C)c(O)c(CN(C)C)c1,survivor count,"T/C endpoint: mean survival time, dose: 400.0 mg/kg/injection, schedule: Q04DX003 (ip), vehicle: saline",3 of 6
O=C(C[n+]1ccccc1)CC(O)(C(F)(F)F)C(F)(F)F,survivor count,[8],3 of 6
Cc1cn(C2CC(O)C(CS[As](C)C)O2)c(=O)[nH]c1=O (configuration not stated),survivor count,"T/C endpoint: mean survival time, dose: 200.0 mg/kg/injection, schedule: Q01DX005 (ip), vehicle: distilled water + Tween-80",1 of 6
CC(=O)CC(=O)C1CCC(C(=O)CC(C)=O)CC1 (configuration not stated),survivor count,[3],6 of 6
CN(Cc1cnc2nc(N)nc(N)c2n1)c1ccc(C(=O)NC(CCC(N)=O)C(=O)O)cc1 (configuration not stated),T/C,"T/C endpoint: mean survival time, dose: 25.0 mg/kg/injection, schedule: Q01DX009 (ip), vehicle: sodium bicarbonate",139 % of control
same,survivor count,"T/C endpoint: mean survival time, dose: 100.0 mg/kg/injection, schedule: Q01DX009 (ip), vehicle: sodium bicarbonate",6 of 6
same,T/C,"T/C endpoint: mean survival time, dose: 120.0 mg/kg/injection, schedule: Q04DX003 (ip), vehicle: sodium bicarbonate",143 % of control
same,survivor count,"T/C endpoint: mean survival time, dose: 200.0 mg/kg/injection, schedule: Q01DX009 (ip), vehicle: sodium bicarbonate",3 of 6
c1ccc2c(c1)[nH]c1c3[n+](ccc12)CCCC3,survivor count,"T/C endpoint: mean survival time, dose: 200.0 mg/kg/injection, schedule: Q01DX001 (ip), vehicle: saline",0 of 6
same,survivor count,[5],0 of 6
Cc1ccc(NC(=S)NCCO)cc1C,survivor count,[6],3 of 6
same,survivor count,[8],3 of 6
O[Si](O)([O][Sn]([c]1ccccc1)([c]1ccccc1)[c]1ccccc1)[O][Sn]([c]1ccccc1)([c]1ccccc1)[c]1ccccc1,survivor count,"T/C endpoint: mean survival time, dose: 25.0 mg/kg/injection, schedule: Q01DX009 (ip), vehicle: saline",0 of 3
CCN1/C(=C/C=C/C=C\C=C\c2sc3ccc4ccccc4c3[n+]2CC)Sc2ccc3ccccc3c21,T/C,"T/C endpoint: mean survival time, dose: 5.0 mg/kg/injection, schedule: Q01DX009 (ip), vehicle: saline with Tween-80",125 and 126 % of control
same,T/C,"T/C endpoint: mean survival time, dose: 10.0 mg/kg/injection, schedule: Q01DX009 (ip), vehicle: saline with Tween-80",128 % of control
Cc1cccc(OCC2=NCCN2)c1C,survivor count,"T/C endpoint: mean survival time, dose: 100.0 mg/kg/injection, schedule: Q04DX002 (ip), vehicle: saline with Tween-80",1 of 3
same,survivor count,"T/C endpoint: mean survival time, dose: 200.0 mg/kg/injection, schedule: Q04DX002 (ip), vehicle: saline with Tween-80",0 of 3
same,survivor count,[2],0 of 3
CC1(C)N=C(N)N=C(N)N1c1cccc(/C=C/C=C/c2cccc([N+](=O)[O-])c2)c1,survivor count,[1],1 of 3
same,survivor count,[7],0 of 3
same,survivor count,[3],0 of 3
